Results as given in PMC8942331.
These are yes or no findings as the source states them, for the method shown. In cells and extracts the contact can be indirect. Binding calls can cover weak binding; strength is not graded here.

Target: T1, Vitamin D receptor (human (endogenous in K1 cells)) (UniProt P11473)
T1 sequence: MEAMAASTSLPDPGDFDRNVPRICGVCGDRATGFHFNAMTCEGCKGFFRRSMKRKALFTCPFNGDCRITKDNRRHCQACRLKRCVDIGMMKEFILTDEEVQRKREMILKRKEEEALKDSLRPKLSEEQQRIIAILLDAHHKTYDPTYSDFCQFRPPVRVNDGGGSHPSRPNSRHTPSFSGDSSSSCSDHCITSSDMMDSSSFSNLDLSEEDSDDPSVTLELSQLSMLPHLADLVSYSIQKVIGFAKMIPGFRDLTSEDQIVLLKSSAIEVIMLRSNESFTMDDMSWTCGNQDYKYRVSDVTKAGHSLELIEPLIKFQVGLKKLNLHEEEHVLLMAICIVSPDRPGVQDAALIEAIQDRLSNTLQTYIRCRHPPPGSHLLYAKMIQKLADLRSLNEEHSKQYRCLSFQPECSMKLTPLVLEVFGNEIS
Assay: co-IP; membrane protein extracts of K1 cells (100 µg) incubated with 2 µg anti-VDR antibody or rabbit IgG overnight at 4°C, protein G plus/protein A agarose beads, washes with PBS, Western blot for VDR, E-cadherin and β-catenin

## E-cadherin (human (endogenous in K1 cells))
  binding: binds
